The record followed here is patent US5939387A, “Method of treating insulin resistance” (Eli Lilly and Company, priority 1996, dated 1999).

The test system of this data set is Zucker Diabetic Fatty (ZDF/Gmi-fa/fa) male rats. Briefly: ZDF Male Rat Assay. It counts as in vivo. To be noted: 6 to 14 weeks of age. From the text:
A growth hormone releasing agent is continuously administered to Zucker diabetic male rats subcutaneously by use of an "Alzet" mini osmotic pump. The treatment was started at approximately 6 weeks of age and continued for approximately 6-8 weeks. The experiment was designed to allow the study of changes in the typical plasma glucose and insulin level profiles with the progression of the diabetic disease state.
Zucker Diabetic Fatty (ZDF/Gmi™-fa/fa) male rats were obtained from Genetic Models Inc. (Indianapolis, Ind.). The rats were maintained on Purina Formula 5008 rat chow (Purina Mills, Inc., St. Louis, Mo.) and housed in a light controlled room of alternating 12 hour cycles of light and dark. Rats were singly housed and given free access to food and water. At 5 weeks of age, an oral glucose tolerance test (OGTT: 16 hr fast, oral glucose concentration at 2.5 grams/kg body weight; Butler dextrose solution 50%, lot # 3342, Ft. Collins, Colo.; time points at 0, 30, 60, and 120 minutes) was given to each rat and their plasma assayed for glucose and insulin levels. At 6 weeks of age Alzet minipumps, containing a 1.5 inch polyethylene tube extensions (Model 2001, lot # 040401, 1.0 μl/hr, 7 days; Alza Corporation, Palo Alto, Calif.) were implanted subcutaneously. Animals were anesthetized with isoflurane at approximately 2-3% in oxygen. Each rat was shaved and a Povidone Iodine scrub was used at the site of implantation. A small incision was made above and just posterior to the shoulder. A small pocket was made and the pump placed in so the delivery port was away from the incision. The incision was then closed with wound clips and the rat observed and kept warm until awake. At the end of 7 days the pumps were removed from the rat and a new pump implanted subcutaneously as previously described. Pumps contained vehicle (PBS) or a growth hormone releasing agent (8 rats/group).
The GH releasing agent was prepared at concentrations of 625 and 62.5 μg/mL and loaded into Alzet pumps using sterile techniques. Body weight and food consumption were monitored once a week. Rats were bled from the tail for plasma glucose, insulin, and growth hormone levels weekly. One week prior to sacrificing the rats, an I.P. injection of tetracycline was given to each rat and then again the day before sacrificing (20 mg/mL; 0.5 mL/animal) to determine bone growth.
Assays: Plasma glucose concentrations were determined by the glucose hexokinase method (IL Test GLucose, lot # I1040502; Instrumentation Laboratory Company, Lexington, Mass.) with a model 2000 Monarch (Instrumentation Laboratory Company, Lexington, Mass.). Insulin was determined with a Coat-a-Count kit (Diagnostic Products Corporation, Los Angeles, Calif.) using a rat insulin standard (Lilly Research Laboratories, Indianapolis, Ind.). Glucagon was assayed with a double antibody procedure using guinea pig anti-glucagon (Catalog no. 1032; Linco Research, St. Louis, Mo.), goat anti-guinea pig (lot # T67-7GZ-237); Lilly Research Laboratories, Indianapolis, Ind.) and ^125 I-glucagon (DuPont New England Nuclear, Wilmington, Del.). Growth hormone was assayed using rat growth hormone standard (purchased from Parlow, Torrance Calif.; rGH-RP-2, lot AFP-3190B), anti rGH (purchased from Parlow, Torrance Calif.; rGH-s-r, lot AFP411S), ^125 I-rGH (Corning-Hazelton, Vienna, Va.) and protein A IGSL100 (Enzyme Center, Malden, Mass.).

Under “0.001 μg/min infusion”, “p-methyl hippuroyl Leu(27) (1-44)OH hGHRH (YADAIFTNSYRKVLGQLSARKLLQDILSRQQGESNQERGARARL) [GHRH Analog, functional analog of GHRH disclosed in EP 511 003, agent capable of stimulating growth hormone release]” registered a Heart weight of 1.44 g, a Liver weight of 22.21 g, a Spleen weight of 0.8 g and a Thymus weight of 0.86 g. For the same substance, for the setting “0.01 μg/min infusion”, the Heart weight was 1.69 g, the Liver weight worked out at 24.79 g, the Spleen weight stood at 1.18 g and the Thymus weight came out at 0.99 g.
